Among the data in the supplement of paper PMC6411743 are NP40-soluble protein abundance values, retold here.

By UniProt entry, the sequences of proteins in these tests, tags left out. Where a name states a change or a piece, a line headed by the entry shows the natural chain unless it says otherwise.
UniProt P47224: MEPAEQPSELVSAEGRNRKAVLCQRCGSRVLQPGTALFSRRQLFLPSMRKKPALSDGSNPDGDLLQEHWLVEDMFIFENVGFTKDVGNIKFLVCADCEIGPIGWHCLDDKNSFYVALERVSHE
UniProt P48553, whole entry: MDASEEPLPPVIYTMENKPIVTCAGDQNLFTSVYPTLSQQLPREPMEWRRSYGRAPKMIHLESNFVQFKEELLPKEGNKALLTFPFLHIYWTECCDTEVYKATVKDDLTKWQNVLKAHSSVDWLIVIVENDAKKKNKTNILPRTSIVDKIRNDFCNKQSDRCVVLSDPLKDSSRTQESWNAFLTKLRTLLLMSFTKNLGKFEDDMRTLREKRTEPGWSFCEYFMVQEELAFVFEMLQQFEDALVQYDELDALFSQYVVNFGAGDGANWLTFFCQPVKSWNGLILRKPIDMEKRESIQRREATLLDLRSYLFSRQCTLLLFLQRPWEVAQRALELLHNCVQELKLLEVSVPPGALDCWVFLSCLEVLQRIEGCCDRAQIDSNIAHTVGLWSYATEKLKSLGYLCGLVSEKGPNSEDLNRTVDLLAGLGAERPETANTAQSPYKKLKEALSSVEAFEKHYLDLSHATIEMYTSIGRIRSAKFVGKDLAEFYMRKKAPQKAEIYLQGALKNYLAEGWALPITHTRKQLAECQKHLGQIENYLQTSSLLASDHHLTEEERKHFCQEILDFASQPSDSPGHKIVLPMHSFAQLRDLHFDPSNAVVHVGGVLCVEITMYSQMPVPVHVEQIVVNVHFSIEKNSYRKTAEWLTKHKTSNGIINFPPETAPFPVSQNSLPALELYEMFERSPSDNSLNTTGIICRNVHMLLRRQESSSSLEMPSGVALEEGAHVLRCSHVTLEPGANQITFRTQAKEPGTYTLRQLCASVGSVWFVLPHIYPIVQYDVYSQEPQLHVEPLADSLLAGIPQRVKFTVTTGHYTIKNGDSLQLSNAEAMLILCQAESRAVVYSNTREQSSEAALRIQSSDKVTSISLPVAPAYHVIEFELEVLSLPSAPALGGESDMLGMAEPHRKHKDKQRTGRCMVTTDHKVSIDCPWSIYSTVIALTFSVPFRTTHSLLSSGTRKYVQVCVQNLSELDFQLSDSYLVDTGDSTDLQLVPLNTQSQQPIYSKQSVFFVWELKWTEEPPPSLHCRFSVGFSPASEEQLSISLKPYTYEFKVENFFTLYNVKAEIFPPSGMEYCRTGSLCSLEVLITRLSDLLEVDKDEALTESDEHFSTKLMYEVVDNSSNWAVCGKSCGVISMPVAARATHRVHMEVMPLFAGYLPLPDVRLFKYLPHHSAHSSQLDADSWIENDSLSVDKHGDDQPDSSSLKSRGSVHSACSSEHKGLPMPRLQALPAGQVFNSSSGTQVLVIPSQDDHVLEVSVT
UniProt P51452: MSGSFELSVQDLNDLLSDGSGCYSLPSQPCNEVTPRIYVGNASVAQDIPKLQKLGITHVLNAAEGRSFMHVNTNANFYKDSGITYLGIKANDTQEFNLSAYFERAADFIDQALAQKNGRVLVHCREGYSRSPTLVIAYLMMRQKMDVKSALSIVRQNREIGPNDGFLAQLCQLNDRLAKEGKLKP
UniProt P54136: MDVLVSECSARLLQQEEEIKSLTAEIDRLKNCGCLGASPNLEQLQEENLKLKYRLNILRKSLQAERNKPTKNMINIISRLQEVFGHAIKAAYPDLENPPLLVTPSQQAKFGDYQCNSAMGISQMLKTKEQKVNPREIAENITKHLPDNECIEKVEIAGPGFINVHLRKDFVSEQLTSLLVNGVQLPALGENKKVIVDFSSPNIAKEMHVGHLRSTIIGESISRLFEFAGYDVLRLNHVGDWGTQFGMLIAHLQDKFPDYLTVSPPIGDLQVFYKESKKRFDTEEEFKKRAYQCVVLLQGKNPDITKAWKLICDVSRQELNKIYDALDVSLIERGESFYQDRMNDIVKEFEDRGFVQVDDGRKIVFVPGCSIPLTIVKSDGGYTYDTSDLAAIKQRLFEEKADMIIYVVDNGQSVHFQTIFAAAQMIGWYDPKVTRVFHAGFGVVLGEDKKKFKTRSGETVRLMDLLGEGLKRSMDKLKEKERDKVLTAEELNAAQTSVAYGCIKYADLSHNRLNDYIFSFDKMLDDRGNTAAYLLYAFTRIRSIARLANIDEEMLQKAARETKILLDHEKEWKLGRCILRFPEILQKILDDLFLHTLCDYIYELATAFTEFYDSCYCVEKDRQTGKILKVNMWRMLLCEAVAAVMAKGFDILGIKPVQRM
UniProt P53597: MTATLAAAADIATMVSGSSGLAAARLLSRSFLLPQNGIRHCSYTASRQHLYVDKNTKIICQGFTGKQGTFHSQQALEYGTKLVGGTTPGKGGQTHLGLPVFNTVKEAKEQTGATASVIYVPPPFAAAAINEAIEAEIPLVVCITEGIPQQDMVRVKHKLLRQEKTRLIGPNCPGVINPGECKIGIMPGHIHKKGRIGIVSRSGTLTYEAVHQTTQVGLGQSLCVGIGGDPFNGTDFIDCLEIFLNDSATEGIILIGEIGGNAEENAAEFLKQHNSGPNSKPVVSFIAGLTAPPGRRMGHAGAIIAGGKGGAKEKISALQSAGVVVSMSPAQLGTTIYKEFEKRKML
UniProt P49959: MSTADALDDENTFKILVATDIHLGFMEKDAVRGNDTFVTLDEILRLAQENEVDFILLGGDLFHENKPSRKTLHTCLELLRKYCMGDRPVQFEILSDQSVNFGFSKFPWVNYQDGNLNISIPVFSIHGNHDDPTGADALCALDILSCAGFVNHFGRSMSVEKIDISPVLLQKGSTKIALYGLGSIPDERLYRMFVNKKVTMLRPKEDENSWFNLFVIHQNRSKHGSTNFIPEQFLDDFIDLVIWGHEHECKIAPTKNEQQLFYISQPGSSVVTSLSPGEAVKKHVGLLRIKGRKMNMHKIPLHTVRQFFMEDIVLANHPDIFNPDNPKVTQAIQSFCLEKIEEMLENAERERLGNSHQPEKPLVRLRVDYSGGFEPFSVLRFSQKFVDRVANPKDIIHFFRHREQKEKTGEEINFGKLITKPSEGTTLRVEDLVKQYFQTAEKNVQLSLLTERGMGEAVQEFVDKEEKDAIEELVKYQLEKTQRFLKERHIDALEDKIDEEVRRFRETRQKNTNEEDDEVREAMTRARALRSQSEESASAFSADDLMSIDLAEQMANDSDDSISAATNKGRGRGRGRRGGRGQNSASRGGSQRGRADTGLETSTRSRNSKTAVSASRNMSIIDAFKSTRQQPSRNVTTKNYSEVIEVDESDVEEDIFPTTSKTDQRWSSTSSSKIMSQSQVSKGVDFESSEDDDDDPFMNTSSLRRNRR
UniProt P41214: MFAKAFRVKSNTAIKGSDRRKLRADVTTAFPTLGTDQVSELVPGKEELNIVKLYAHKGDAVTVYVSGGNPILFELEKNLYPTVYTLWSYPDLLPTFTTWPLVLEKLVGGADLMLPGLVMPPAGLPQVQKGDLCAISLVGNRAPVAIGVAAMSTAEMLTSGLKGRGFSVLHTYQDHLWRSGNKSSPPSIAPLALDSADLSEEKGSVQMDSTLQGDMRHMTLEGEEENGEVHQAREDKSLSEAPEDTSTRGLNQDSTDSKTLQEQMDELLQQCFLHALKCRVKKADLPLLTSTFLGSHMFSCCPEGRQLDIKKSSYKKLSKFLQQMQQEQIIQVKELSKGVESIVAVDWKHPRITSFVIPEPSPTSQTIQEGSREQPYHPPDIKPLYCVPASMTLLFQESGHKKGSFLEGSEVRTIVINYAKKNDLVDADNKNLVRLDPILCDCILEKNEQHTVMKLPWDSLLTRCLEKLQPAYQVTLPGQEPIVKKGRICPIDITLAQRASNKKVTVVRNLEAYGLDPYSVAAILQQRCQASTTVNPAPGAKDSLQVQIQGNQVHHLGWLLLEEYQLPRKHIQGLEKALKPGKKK
UniProt P50747: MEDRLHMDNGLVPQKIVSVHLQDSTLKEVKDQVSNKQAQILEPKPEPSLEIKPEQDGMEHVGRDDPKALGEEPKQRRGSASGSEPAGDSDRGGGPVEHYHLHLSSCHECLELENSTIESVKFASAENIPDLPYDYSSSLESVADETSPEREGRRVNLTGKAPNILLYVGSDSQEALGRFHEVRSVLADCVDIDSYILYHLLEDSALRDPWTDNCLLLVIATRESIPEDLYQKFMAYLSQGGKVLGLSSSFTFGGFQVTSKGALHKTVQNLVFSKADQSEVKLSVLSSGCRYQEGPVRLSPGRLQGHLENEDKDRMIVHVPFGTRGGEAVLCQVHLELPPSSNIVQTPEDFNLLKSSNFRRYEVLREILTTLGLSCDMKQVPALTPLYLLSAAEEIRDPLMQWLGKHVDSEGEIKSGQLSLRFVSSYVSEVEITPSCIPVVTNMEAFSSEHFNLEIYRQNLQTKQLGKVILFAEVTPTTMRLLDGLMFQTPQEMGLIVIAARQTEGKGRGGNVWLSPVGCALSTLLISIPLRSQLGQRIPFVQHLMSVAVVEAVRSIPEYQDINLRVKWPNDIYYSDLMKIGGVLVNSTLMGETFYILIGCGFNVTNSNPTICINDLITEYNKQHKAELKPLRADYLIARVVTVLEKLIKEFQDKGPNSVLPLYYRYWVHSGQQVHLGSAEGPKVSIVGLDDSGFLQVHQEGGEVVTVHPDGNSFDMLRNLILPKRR
UniProt P51572: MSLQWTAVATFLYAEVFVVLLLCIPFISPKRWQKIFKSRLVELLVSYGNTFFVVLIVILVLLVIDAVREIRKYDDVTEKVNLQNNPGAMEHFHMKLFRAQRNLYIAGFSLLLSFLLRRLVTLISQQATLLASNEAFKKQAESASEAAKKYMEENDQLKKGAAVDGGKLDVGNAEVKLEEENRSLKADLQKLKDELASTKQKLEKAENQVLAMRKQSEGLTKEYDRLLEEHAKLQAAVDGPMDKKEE
UniProt P42336, whole entry: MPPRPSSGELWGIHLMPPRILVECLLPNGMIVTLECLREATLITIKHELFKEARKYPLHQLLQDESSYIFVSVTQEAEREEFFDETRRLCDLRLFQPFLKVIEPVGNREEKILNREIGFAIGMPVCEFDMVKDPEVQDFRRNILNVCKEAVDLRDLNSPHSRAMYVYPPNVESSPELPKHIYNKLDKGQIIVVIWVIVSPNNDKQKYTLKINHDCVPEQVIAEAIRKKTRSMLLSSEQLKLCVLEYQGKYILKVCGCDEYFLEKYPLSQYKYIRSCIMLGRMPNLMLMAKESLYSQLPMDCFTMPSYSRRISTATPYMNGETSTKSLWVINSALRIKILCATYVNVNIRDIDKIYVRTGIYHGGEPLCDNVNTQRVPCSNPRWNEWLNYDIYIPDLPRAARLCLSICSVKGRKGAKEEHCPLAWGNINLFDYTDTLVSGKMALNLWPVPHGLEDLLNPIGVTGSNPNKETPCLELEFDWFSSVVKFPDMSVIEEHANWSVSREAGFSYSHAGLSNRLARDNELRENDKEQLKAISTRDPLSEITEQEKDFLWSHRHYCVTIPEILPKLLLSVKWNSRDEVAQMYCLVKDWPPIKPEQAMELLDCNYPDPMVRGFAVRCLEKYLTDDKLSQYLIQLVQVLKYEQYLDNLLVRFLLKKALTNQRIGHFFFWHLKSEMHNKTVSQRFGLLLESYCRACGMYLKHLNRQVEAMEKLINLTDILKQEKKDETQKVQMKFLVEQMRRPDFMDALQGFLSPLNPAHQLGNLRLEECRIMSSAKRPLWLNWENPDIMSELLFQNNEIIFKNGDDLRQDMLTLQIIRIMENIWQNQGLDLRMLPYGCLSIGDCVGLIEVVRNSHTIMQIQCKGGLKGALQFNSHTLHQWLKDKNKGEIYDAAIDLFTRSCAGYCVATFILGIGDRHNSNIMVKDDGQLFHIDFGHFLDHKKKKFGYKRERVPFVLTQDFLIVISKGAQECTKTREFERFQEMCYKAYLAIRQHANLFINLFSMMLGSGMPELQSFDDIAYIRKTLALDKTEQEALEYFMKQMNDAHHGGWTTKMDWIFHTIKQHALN
UniProt P49757: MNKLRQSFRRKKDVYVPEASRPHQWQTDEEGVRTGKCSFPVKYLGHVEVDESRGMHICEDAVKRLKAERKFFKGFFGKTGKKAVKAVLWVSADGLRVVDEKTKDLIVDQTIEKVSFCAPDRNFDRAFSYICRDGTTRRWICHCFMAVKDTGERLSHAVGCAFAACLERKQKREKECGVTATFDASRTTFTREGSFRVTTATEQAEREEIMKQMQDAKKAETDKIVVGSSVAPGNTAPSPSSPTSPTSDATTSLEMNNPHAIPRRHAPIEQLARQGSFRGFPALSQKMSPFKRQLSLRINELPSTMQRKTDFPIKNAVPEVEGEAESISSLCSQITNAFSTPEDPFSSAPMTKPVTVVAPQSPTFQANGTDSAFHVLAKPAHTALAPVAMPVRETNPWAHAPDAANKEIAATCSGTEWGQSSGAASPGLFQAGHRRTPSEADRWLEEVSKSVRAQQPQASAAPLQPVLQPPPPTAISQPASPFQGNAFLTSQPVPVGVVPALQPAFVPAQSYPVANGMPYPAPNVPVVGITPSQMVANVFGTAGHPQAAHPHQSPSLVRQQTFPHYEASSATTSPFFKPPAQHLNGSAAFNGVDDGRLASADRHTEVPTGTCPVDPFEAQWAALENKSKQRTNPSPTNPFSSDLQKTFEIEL

± gives the standard deviation of the averaged measurements. The entries are a selection whose mix differs from that of the whole data set.

Compound in one test: Nc1ncnc2c1ncn2[C@@H]1O[C@H](COP(=O)(O)OP(=O)(O)NP(=O)(O)O)[C@@H](O)[C@H]1O [adenylyl imidodiphosphate]
In words: NP40-soluble protein abundance relative to vehicle (solubility fold change) (ratio); higher = more soluble protein in presence of AMP-PNP. The note with it: concentration: 4mM. In a few lines: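 Crude Jurkat lysate, prepared by Dounce homogenisation, was exposed to eight concentrations from 0.1 to 10 mM for 10 min at room temperature and then 3 min at 37 °C. Solubilisation used 0.8% NP40 with benzonase for 60 min at 4 °C, followed by ultracentrifugation and TMT labelling of the supernatant for LC-MS/MS. After vsn normalisation of intensities, each value is the fold change against the detergent-processed vehicle within each replicate, across three independent experiments.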
Consider RFC5 (UniProt P40937), for which the NP40-soluble protein abundance was 1.05 ± 0.052.
With UniProt P43403 and related entries, the NP40-soluble protein abundance was 1.03 ± 0.036.
As to SLC16A1 (UniProt P53985), the NP40-soluble protein abundance was found to be 1.02 ± 0.039.
Take UniProt P54886 and related entries: the NP40-soluble protein abundance was determined as 1.01 ± 0.03.
Regarding RABIF (UniProt P47224), the NP40-soluble protein abundance worked out at 0.987 ± 0.023.
Turning to VASP (UniProt P50552), the NP40-soluble protein abundance turned out to be 1.03 ± 0.033.
Consider UniProt P53365 and related entries, for which the NP40-soluble protein abundance was determined as 0.984 ± 0.065.
For the target UniProt P49841 and related entries, the NP40-soluble protein abundance was 0.988 ± 0.018.
On the same count and under the same terms, the result for MVD (UniProt P53602) reads 1.01 ± 0.025; that for UniProt P49590 and related entries, 0.963 ± 0.026; that for PMS2 (UniProt P54278), 1.14 ± 0.062.
Regarding TRAPPC10 (UniProt P48553), the NP40-soluble protein abundance stood at 0.968 ± 0.043.
Consider POLR2K (UniProt P53803), for which the NP40-soluble protein abundance stood at 1.08 ± 0.013.
In the case of UniProt P41229 and related entries, the NP40-soluble protein abundance was determined as 1 ± 0.024.
Take UniProt P50548 and related entries: the NP40-soluble protein abundance was found to be 0.953 ± 0.024.
As for IDH2 (UniProt P48735), the NP40-soluble protein abundance amounted to 0.947 ± 0.029.
For the target UniProt P53990 and related entries, the NP40-soluble protein abundance was determined as 0.948 ± 0.021.
For the target STAT1 (UniProt P42224), the NP40-soluble protein abundance turned out to be 0.996 ± 0.022.
On to UniProt P49916 and related entries, for which the NP40-soluble protein abundance was 1.03 ± 0.003.
Take FNTA (UniProt P49354): the NP40-soluble protein abundance was 0.966 ± 0.06.
Still for that read-out and setting: for UniProt P46934-4|H0Y9L1 the value was 0.989 ± 0.01; for UniProt P51649 and related entries, 0.953 ± 0.025; for SLC19A1 (UniProt P41440), 1.01 ± 0.03.
Consider DUSP3 (UniProt P51452), for which the NP40-soluble protein abundance stood at 0.999 ± 0.028.
Regarding UniProt P47897 and related entries, the NP40-soluble protein abundance came out at 0.949 ± 0.14.
Still for that read-out and setting: the result for “UniProt P46020-2|A6NMN0 and related entries” reads 0.938 ± 0.046; that for UniProt P54136 and related entries, 0.92 ± 0.1.
Consider UBA7 (UniProt P41226), for which the NP40-soluble protein abundance was determined as 0.99 ± 0.037.
As to ACTR1B (UniProt P42025), the NP40-soluble protein abundance was found to be 0.983 ± 0.071.
With UniProt P52824 and related entries, the NP40-soluble protein abundance worked out at 0.955 ± 0.028.
On to SUCLG1 (UniProt P53597), for which the NP40-soluble protein abundance came to 0.9687 ± 0.0086.
On to UniProt P49959, for which the NP40-soluble protein abundance amounted to 1.02 ± 0.032.
Regarding UniProt P41214, the NP40-soluble protein abundance worked out at 1.05 ± 0.04.
Regarding HLCS (UniProt P50747), the NP40-soluble protein abundance turned out to be 0.957 ± 0.027.
As for UniProt P48634 and related entries, the NP40-soluble protein abundance worked out at 1.17 ± 0.051.
On to UniProt P51572 and related entries, for which the NP40-soluble protein abundance was found to be 1.02 ± 0.028.
Same read-out and setting: the result for PIK3CA (UniProt P42336) reads 0.992 ± 0.011; that for UniProt P49757 and related entries, 1.07 ± 0.03.
In the case of UniProt P50053 and related entries, the NP40-soluble protein abundance was determined as 0.9864 ± 0.0097.

Staying with this test, now noted: concentration: 6mM.
Turning to RFC5 (UniProt P40937), the NP40-soluble protein abundance was 1.11 ± 0.037.
Turning to UniProt P43403 and related entries, the NP40-soluble protein abundance worked out at 1.05 ± 0.026.
As for SLC16A1 (UniProt P53985), the NP40-soluble protein abundance was determined as 0.986 ± 0.061.
Regarding UniProt P54886 and related entries, the NP40-soluble protein abundance worked out at 1.01 ± 0.06.
Same read-out and setting: for RABIF (UniProt P47224) the value was 1 ± 0.013; for VASP (UniProt P50552), 1.01 ± 0.015; for UniProt P53365 and related entries, 0.977 ± 0.045.
For UniProt P49841 and related entries, the NP40-soluble protein abundance turned out to be 0.982 ± 0.023.
As for MVD (UniProt P53602), the NP40-soluble protein abundance amounted to 1.02 ± 0.056.
With UniProt P49590 and related entries, the NP40-soluble protein abundance amounted to 0.923 ± 0.014.
Still for that read-out and setting: the result for PMS2 (UniProt P54278) reads 1.13 ± 0.11.
On the same count and under the same terms, the result for TRAPPC10 (UniProt P48553) reads 0.952 ± 0.014; that for POLR2K (UniProt P53803), 1.05 ± 0.027; that for UniProt P41229 and related entries, 0.981 ± 0.056.
Regarding UniProt P50548 and related entries, the NP40-soluble protein abundance came to 0.92 ± 0.066.
With IDH2 (UniProt P48735), the NP40-soluble protein abundance worked out at 0.976 ± 0.025.
For the target UniProt P53990 and related entries, the NP40-soluble protein abundance stood at 0.9908 ± 0.0032.
On the same count and under the same terms, the result for STAT1 (UniProt P42224) reads 0.952 ± 0.017.
Regarding UniProt P49916 and related entries, the NP40-soluble protein abundance is 1.06 ± 0.019.
Still for that read-out and setting: the result for FNTA (UniProt P49354) reads 1.03 ± 0.088; that for UniProt P46934-4|H0Y9L1, 0.966 ± 0.04; that for UniProt P51649 and related entries, 0.9345 ± 0.0083.
With SLC19A1 (UniProt P41440), the NP40-soluble protein abundance was 0.987 ± 0.035.
On to DUSP3 (UniProt P51452), for which the NP40-soluble protein abundance came out at 1.02 ± 0.079.
Consider UniProt P47897 and related entries, for which the NP40-soluble protein abundance stood at 0.923 ± 0.13.
On the same count and under the same terms, for “UniProt P46020-2|A6NMN0 and related entries” the value was 0.913 ± 0.081; for UniProt P54136 and related entries, 0.92 ± 0.097; for UBA7 (UniProt P41226), 0.9962 ± 0.0098.
On the same count and under the same terms, for ACTR1B (UniProt P42025) the value was 0.986 ± 0.029; for UniProt P52824 and related entries, 0.99 ± 0.025.
Still for that read-out and setting: the result for SUCLG1 (UniProt P53597) reads 1.03 ± 0.065; that for UniProt P49959, 1.03 ± 0.056.
In the case of UniProt P41214, the NP40-soluble protein abundance worked out at 1.02 ± 0.025.
As for HLCS (UniProt P50747), the NP40-soluble protein abundance came to 0.97 ± 0.015.
Consider UniProt P48634 and related entries, for which the NP40-soluble protein abundance turned out to be 1.18 ± 0.13.
With UniProt P51572 and related entries, the NP40-soluble protein abundance was 1.03 ± 0.03.
Still for that read-out and setting: the result for PIK3CA (UniProt P42336) reads 0.951 ± 0.035; that for UniProt P49757 and related entries, 1.07 ± 0.066.
The same measure, in the same setting: the result for UniProt P50053 and related entries reads 0.968 ± 0.019.
